Test results reported in US20020076736A1, “Methods of affecting laminin 5 processing” (priority 2000, published 2002).
Results are given in words; binding and its absence hold for the method and conditions named. Some entries that bind do so weakly or less than the wild type.

The chains behind the UniProt entries cited, without tags or fusion partners. Where a name states a change or a piece, a line headed by the entry shows the natural chain unless it says otherwise.
UniProt Q13751: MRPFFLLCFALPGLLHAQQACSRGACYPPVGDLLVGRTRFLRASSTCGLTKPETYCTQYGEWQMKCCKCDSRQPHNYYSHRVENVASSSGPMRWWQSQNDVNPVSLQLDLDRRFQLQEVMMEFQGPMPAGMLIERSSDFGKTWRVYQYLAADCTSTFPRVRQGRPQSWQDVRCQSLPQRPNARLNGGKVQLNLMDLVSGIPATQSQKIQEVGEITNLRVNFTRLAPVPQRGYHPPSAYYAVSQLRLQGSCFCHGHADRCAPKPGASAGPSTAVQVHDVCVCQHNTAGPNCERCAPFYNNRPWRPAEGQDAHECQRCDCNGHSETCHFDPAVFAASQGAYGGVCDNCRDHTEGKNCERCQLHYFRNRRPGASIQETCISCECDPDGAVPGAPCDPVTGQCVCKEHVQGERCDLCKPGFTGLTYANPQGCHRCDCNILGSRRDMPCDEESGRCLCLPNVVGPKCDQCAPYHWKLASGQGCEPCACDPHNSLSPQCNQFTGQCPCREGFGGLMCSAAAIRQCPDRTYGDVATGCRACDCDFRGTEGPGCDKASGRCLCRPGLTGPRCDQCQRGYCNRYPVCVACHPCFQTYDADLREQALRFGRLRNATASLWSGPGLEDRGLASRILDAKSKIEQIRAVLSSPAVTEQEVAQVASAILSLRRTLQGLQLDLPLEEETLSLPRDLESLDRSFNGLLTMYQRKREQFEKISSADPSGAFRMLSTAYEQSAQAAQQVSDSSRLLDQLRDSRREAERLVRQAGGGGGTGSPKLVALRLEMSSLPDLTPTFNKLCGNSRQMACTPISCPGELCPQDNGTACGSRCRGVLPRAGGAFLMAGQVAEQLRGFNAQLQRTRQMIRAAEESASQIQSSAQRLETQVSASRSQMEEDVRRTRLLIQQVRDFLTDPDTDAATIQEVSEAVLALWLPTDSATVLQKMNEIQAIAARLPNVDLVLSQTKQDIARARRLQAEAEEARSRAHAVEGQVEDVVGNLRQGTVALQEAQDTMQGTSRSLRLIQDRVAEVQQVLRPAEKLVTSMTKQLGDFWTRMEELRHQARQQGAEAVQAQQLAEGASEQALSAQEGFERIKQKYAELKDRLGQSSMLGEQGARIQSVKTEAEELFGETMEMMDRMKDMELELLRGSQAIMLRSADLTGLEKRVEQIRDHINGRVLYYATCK
UniProt Q13753: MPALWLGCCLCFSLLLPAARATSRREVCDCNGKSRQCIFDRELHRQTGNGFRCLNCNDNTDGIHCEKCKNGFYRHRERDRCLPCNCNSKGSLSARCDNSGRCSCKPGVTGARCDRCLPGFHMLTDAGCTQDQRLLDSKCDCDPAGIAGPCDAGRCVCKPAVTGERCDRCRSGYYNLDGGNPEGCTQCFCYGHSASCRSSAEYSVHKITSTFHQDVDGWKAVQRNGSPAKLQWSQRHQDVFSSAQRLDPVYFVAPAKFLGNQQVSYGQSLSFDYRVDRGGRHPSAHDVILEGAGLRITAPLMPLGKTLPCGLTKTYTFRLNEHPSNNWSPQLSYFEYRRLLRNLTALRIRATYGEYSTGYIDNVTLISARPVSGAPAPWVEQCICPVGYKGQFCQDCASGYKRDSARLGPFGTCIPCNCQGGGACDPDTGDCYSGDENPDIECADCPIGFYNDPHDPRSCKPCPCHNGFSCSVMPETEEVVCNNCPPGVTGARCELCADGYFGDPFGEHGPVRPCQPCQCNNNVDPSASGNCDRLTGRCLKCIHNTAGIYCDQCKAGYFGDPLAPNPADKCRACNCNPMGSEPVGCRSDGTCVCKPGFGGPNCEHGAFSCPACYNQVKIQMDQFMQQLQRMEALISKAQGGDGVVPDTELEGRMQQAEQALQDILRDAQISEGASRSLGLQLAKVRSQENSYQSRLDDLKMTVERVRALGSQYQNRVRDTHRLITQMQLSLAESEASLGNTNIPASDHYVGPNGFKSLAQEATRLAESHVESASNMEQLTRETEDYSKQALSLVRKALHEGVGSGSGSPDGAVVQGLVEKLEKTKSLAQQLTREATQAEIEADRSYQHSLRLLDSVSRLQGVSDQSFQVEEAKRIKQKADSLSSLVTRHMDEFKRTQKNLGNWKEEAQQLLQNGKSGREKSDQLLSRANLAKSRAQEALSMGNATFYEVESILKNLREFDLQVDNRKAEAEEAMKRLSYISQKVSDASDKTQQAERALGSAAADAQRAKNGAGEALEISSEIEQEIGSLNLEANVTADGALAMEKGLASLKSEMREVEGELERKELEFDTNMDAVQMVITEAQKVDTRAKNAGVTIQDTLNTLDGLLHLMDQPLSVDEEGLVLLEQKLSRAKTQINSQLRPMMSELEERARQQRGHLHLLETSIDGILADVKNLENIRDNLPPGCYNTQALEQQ
UniProt P23229: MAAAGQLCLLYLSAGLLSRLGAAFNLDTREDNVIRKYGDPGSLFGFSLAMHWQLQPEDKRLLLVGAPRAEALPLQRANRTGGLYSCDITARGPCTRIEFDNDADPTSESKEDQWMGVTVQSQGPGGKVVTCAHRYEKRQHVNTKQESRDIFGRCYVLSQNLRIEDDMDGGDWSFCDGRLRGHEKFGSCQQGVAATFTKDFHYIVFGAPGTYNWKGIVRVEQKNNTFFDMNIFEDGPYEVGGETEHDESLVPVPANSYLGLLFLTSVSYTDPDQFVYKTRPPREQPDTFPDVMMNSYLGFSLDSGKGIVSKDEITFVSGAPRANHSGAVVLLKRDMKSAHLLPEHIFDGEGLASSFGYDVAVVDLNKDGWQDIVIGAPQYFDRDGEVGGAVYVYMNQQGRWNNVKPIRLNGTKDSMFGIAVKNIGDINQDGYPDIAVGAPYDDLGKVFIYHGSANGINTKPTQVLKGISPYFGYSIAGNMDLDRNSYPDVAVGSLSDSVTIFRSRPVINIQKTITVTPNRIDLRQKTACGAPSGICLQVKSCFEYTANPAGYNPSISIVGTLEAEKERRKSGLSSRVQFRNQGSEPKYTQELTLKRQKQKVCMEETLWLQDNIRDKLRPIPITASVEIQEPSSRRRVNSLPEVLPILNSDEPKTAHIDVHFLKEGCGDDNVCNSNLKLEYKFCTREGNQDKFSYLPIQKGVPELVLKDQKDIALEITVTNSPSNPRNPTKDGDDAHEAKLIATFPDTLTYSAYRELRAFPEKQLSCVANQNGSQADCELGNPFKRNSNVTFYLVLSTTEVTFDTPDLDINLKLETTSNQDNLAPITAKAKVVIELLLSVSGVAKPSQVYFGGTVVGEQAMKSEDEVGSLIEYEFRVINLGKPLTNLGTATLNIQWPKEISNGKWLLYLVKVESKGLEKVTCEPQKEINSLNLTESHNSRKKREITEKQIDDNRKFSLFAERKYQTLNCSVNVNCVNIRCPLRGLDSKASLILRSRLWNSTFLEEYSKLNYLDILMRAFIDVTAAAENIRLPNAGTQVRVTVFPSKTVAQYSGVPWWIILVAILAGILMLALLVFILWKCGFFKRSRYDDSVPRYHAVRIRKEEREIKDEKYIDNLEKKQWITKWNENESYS

Target: processed human laminin 5 (α3 chain of 165 kDa, γ2 chain of 105 kDa) (human) (UniProt Q16787+Q13751+Q13753)
Assay: antibody blocking of keratinocyte attachment to laminin 5 matrix

binding: binds
Substance: α6β4 integrin (from UniProt P23229 24-1130; P16144 28-1822) (receptor)
